Out of some 340,000 compounds screened, about 4,500 (1.3%) were called active. The inconclusive results got no clear call from the source; some entries with a clear call stand among them for comparison. The call rests on the fitted dose curve; in most records, active means well fitted inhibition curve with a large enough effect; inconclusive means small, poorly fitted or top-dose-only effect, or another doubt; inactive means no such curve, though single readings can be large or run the other way. Potencies beside an inconclusive call are fits to weak or partial responses and may not hold up.
Target: DNA polymerase beta (Homo sapiens) (UniProt P06746)
Experiment: qHTS Assay for Inhibitors of DNA Polymerase Beta
Details: Pol beta primer extension/strand displacement, fluorescence kinetic; activity change, negative = inhibition: at 114 µM (top of the series)
Method in brief: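 10 nM enzyme + cpd, 15 min RT; start with substrate 50 nM final; read 0 min and after 10 min RT. Corrected, normalized data; 4-parameter Hill curve fit.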
On the % scale 0 is the no-effect control and ±100 the full control effect; potency means the concentration at half of the fitted maximal effect.

Potency, active:
Cc1cccc(N2CC(C(=O)Nc3nnc(SCC(=O)N4CCOCC4)s3)CC2=O)c1 (centres undefined) 28.2 µM
Cc1ccccc1/C=C/c1nc2ccccc2c(=O)[nH]1 22.4 µM
COc1cc(C)cc(C(=O)O)c1C1=C(O)c2cccc(O)c2C(=O)C1=O 28.2 µM

Potency, inconclusive:
CS(=O)(=O)c1ccc(C(=O)NCCN2C(=O)S/C(=C\c3cccnc3)C2=O)cc1[N+](=O)[O-] 89.1 µM [inhibitor, single point]
CCCCCCC(=O)N=Nc1c(O)[nH]c2ccc([N+](=O)[O-])cc12 2 µM [inhibitor, full curve]
COc1ccc2c(c1)c1c(c(=O)n(-c3ccccc3C)c(=O)n1Cc1cccc(C(F)(F)F)c1)n2C 100 µM [inhibitor, single point]
COc1ccc(-c2nnn(-c3cc(Cl)cc(Cl)c3)c2N)cc1 12.6 µM [inhibitor, partial curve]
Nc1cccc(S(=O)(=O)NC2=NCCC2)c1 89.1 µM [inhibitor, single point]
COc1cccc(NC(=O)CN2C(=O)c3cccc4cccc2c34)c1 10 µM [inhibitor, partial curve]
CCN(CC)CCN1C(=O)c2cccc3cc(N)cc(c23)C1=O 0.447 µM [inhibitor, partial curve, poor fit]
C/C=C(/C)C(=O)Nc1cccc(C2=NOC3(C2)C[C@@H](C(N)=O)N(C(=O)[C@H]2CCC(=O)N2)C3)c1 (some centres undefined) 89.1 µM [inhibitor, single point]
COc1ccc(CCNC(=O)CCc2c(C)c3cc4c(C)c(C)oc4cc3oc2=O)cc1OC 20 µM [inhibitor, full curve]
CN1CCN(c2ccc(CNS(=O)(=O)c3cccc(F)c3)cc2)CC1 89.1 µM [inhibitor, single point]
O=C(NC1CCCC1)C(NS(=O)(=O)c1cccc2nsnc12)c1ccccc1 (centres undefined) 89.1 µM [inhibitor, single point]
Cc1ccc(N=Cc2c(C)[nH]n(-c3nc4ccccc4[nH]3)c2=O)cc1 17.8 µM [inhibitor, partial curve]
COc1ccc(NC(=O)Nc2cc(NC(=O)Nc3ccc(OC)cc3)c(C)nc2C)cc1 89.1 µM [inhibitor, single point]
COc1ccccc1NC(=O)Cn1c(O)c(N=NC(=O)c2ccccc2O)c2ccccc21 2.51 µM [inhibitor, full curve, poor fit]
O=C(O)c1ccccc1-c1ccc(/C=C/c2cc(C(F)(F)F)[nH]c(=O)n2)o1 70.8 µM [inhibitor, single point]
O=C(Nc1n[nH]c(C(F)(F)F)n1)C1CC1 3.16 µM [inhibitor, full curve, poor fit]
CC1(C)CC(NC(=O)C(c2ccccc2)c2ccccc2)CC(C)(C)N1 28.2 µM [inhibitor, single point]
CC(C)c1nc(N2CCCC2)c(C#N)c2c1CCCC2 89.1 µM [inhibitor, single point]
CCc1ccc(S(=O)(=O)c2ccc(-n3nc(C)cc3N)cc2)cc1 11.2 µM [inhibitor, partial curve, poor fit]
Cc1ccc2nc(/C(C#N)=C\c3ccc(OC(=O)c4cccs4)cc3)[nH]c2c1 7.94 µM [inhibitor, full curve]
CCCn1c(N)nc2ccccc21 0.141 µM [inhibitor, full curve, poor fit]
CCOC(=O)C1(CC2CC2)CCN(C(=O)c2cccnc2C)CC1 0.282 µM [inhibitor, full curve, poor fit]
CC(=O)NCC1CCCN(Cc2cn(-c3ccccc3F)nc2-c2cc(C)sc2C)C1 (centres undefined) 22.4 µM [inhibitor, partial curve, poor fit]
CC(=O)c1cccc(NC(=O)c2cccc(N3C(=O)c4ccccc4C3=O)c2)c1 1.41 µM [inhibitor, full curve, poor fit]
Cc1ccc(NC(=O)CN(C)S(=O)(=O)c2cccs2)c(Br)c1 3.98 µM [inhibitor, single point]

A draw from above in order of heavy-atom count, low to high.
Potency, inconclusive:
CCCn1c(N)nc2ccccc21 0.141 µM [inhibitor, full curve, poor fit]
Cc1ccc(NC(=O)CN(C)S(=O)(=O)c2cccs2)c(Br)c1 3.98 µM [inhibitor, single point]
CC(=O)NCC1CCCN(Cc2cn(-c3ccccc3F)nc2-c2cc(C)sc2C)C1 (centres undefined) 22.4 µM [inhibitor, partial curve, poor fit]

Following part.

Activity change, negative = inhibition, inactive:
CCCN(c1c(C)n(C)n(-c2ccccc2)c1=O)S(=O)(=O)c1ccc(C)cc1 20.7%
O=C(NCc1cccs1)C1CC(c2ccc(Cl)cc2)=NO1 (centres undefined) -15.7%
COc1cc(O)c2c(c1)OC(C)(C)CC2=O 6.6%
O=C(Nc1nnc(-c2ccncc2)o1)c1ccccc1 12.3%
COC(=O)C1=C(C)N(Cc2ccc(OC)cc2)C(=O)C1 6.09%
COc1ccc(C2Nc3ccccc3C(=O)N2Cc2ccco2)cc1COc1ccc(F)cc1 (centres undefined) 1.43%
Cc1cccc(OCC(=O)NCCCNC(=O)c2ccco2)c1 5.65%
CC1(C)CC(=O)C2=C(C1)N(c1cccc(Cl)c1)C(=O)NC2(C(F)(F)F)C(F)(F)F 24.6%
Cc1csc(NC(=O)C(C)N2C(=O)c3ccccc3S2(=O)=O)n1 (centres undefined) 2.85%
Cc1ccc(NS(=O)(=O)c2cc([N+](=O)[O-])ccc2NNC(=S)Nc2cc(C)ccc2C)c(C)c1 2.24%
CCn1c(SCC(=O)N/N=C/c2ccc(C)o2)nnc1-c1ccc(C)cc1 34.3%
O=C(COc1cc2oc(=O)c3c(c2cc1Cl)CCC3)Nc1ccc(CN2CCOCC2)cc1 18.9%
COc1cc(C(=O)NCC(c2ccc3c(c2)OCO3)N2CCOCC2)cc(OC)c1OC (centres undefined) 2.33%

Activity change, negative = inhibition, inconclusive:
Cc1cc(C)c(O)c(-c2cc(C(=O)NCCc3ccc(S(N)(=O)=O)cc3)[nH]n2)c1 -32% [inhibitor]
CCN(CC)c1ccc(NC2CC(=O)N(CCc3ccc(OC)cc3)C2=O)cc1 (centres undefined) -56% [inhibitor]
CNC(=O)c1cc2cc(OC)ccc2n1CCN(C)C -34.9% [inhibitor]
